Measured values reported in patent publication EP0546533A2, “Medical use of kininogenase” (SANWA KAGAKU KENKYUSHO CO., LTD., priority 1991, dated 1993).
For at least one compound, name, drawing or mass did not settle the structure.

How the values were obtained:
[1] = tested on: model animal with hypoxia; assay: Influence to model animal with hypoxia (5% O2 breathing); assay type: in vivo, New Zealand white rabbits
Experimental: Each of female New Zealand white rabbits (body weight of about 3kg) were anethetized with pentbarbital-Na, and a tube was inserted, at once, into their trachea to cause an adjusted breathing with air through a respirator.
After intravenously injecting 0.5mg/kg of tubocurarine chloride to cause an amyotonia, the animal was transferred to a fixing device to cause an orientation of her brain to peel bellies along a median line in its vertex and to form two apertures or windows of 0.5 x 0.5cm at right front portion and 1.0 x 0.5cm at right rear portion of the skull. To the front window, a silver ball electrode was set to measure brain-wave in the cortex, and a local blood flow in the cortex and P02 in brain were measured by utilizing the rear window. Number of heat beats was measured by making trigger R-wave of the […]. These parameters were recorded by feeding the same to a polygraph, crossed thermocouple and recticorder.
After stabilized of each parameters, the air from the respirator was changed to 5% 02 and at once, drugs given later was intravenously injected to continue the experiment for 10 minutes. […]
A ratio of change was calculated on the number of heart beats, and an amount of change was calculated on the P02 in brain and local blood flow in brain. The brain-wave was analyzed with an analyzer (Type ATAC-450 marketed by Japan Photoelectric Co., Ltd.) to print out results. […]

[2] = tested on: model animal with cerebral infarction; assay: Cerebral circulation and metabolism in cerebral infarction model (micro-glass bead injection); assay type: in vivo, rabbit
Experimental: A micro-glass bead was injected into right hemicerebrum of an anethetized healthy rabbit to prepare a model animal with cerebral infarction. After administration of a drug, local blood flow (in cortex portion), micro-circulation in cerebral pia leptmeninges, distribution of cerebral blood flow and concentrations of P02, ATP, lactate, pyruvate, glucose and glucose-6-phosphate were measured. The measurement of biochemical substances was carried out after lapsed 60 minutes from the administration of the drug.
A change in diameter arterioles in cerebral pia leptmeninges was observed, as to blood vessels having diameters of >100, >50 to <100 and <50u m, under microscope and according to Cranial window method.

In the case of COC(=O)C1=C(C)NC(C)=C(C(=O)OCCN(C)Cc2ccccc2)C1c1cccc([N+](=O)[O-])c1 (stereo not shown) [Nicardipine], the “Influence to P02 in cerebral cortex (suppression of decrease)” value ([1]; 5% O2, citicholine 100mg/kg or 10mg/kg i.v., Nicardipine 4µ g/kg) is reported as “no suppressing effect”, the “Influence to number of heart beats” value ([1]; versus control group, citicholine 100mg/kg or 10mg/kg i.v. for 30 minutes, Nicardipine 4µ g/kg for 20 seconds) is reported as “reduced with a significant difference” and the “suppression of ATP decrease” value ([2]; 60 minutes after administration of the drug) is reported as “did not show the suppress of ATP decrease”. For the same compound, the “Diameter of arterioles in cerebral pia leptmeninges, blood vessels with diameter exceeding 100 µm” value ([2]; Cranial window method) was “expand”, the “Diameter of arterioles in cerebral pia leptmeninges, blood vessels with diameter less than 50 µm” value ([2]; Cranial window method) was “almost no expansion” and the “Blood flow in cerebral cortex portion at the ischemic side” value ([2]; Nicardipine 0.5mg/kg rapid into upper small intestine, citicholine 10mg/kg sustaining intravenous) was “no increase”. For the same compound, the “Distribution of cerebral blood flow” value ([2]; gray matter at ischemic side) was “no improvement”.
